In article PMC11705898:

Target: S. aureus PhoR (BACTH fusion) (S. aureus Mu50)
Assay: two-hybrid; BACTH (EuroMedex) in E. coli BTH101, plasmids pKT25 and pUT18C; beta-galactosidase activity of cultures grown overnight at 30°C with 0.5 mM IPTG; significance by Dunnett's test against the negative control (no gene in pUT18C)

Substance: S. aureus PhoR (BACTH fusion) (from UniProt A0A0H2XFS9 1-553)
- binding: binds

Results are given in words; binding and its absence hold for the method and conditions named. A result given as binding can be weak or reduced; the word gives no strength.
